Measurements from patent publication US20070060521A1.
These are yes or no findings as the source states them, for the method shown. Some binding calls cover weakened binding; strength is not graded here.

Protein sequences, listed by entry. Tags and fused reporters are not part of them. Residues count along the entry.
UniProt P42224, residues 2-750: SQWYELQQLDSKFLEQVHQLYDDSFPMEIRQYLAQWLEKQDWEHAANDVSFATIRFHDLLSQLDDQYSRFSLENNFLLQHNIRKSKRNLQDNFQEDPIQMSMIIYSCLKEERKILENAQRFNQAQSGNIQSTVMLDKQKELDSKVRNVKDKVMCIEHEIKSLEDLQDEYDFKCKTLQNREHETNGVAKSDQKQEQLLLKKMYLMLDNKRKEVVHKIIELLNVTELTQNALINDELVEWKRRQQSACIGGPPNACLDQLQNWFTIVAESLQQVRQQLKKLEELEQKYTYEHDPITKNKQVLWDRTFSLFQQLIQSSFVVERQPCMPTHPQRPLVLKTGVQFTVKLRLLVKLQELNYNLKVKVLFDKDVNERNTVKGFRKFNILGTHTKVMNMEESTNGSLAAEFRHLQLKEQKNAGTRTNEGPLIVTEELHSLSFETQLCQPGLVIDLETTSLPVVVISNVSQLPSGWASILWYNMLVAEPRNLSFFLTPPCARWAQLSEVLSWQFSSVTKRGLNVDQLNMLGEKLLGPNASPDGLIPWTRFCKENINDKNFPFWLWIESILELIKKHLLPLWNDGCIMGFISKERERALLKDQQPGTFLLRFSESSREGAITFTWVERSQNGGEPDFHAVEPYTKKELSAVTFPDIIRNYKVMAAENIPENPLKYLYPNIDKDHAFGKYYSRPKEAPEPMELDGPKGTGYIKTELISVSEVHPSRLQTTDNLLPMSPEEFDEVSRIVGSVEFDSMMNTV

What was measured:
[1] = target: activated STAT1 in nuclear extracts of human myeloma cells (human) (UniProt P42224); test: EMSA with antibody supershift, nuclear extracts of patients' bone marrow cells
[2] = target: activated STAT1 in nuclear extracts of human myeloma cells (human) (UniProt P42224); test: EMSA with antibody supershift, nuclear extracts of U266 cells

## activated STAT1 in nuclear extracts of human myeloma cells (from UniProt P42224 2-750)
[1]
  binding: binds
[2]
  binding: binds
